{"source": "the supplement of paper PMC6414424", "note": "± gives the standard deviation of the averaged measurements. Some of the results follow."}
{"tested_on": "APPdp1-6 iPSC-derived neurons", "test": "pThr231Tau/total Tau ratio Z-score vs DMSO vehicle wells; higher = more pThr231Tau relative to total Tau", "settings": "5 µM; treatment time 5 days"}
{"compound": "CCc1nn(CCCN2CCN(c3cccc(Cl)c3)CC2)c(=O)n1CCOc1ccccc1", "note": "[Prestw-1152]", "pThr231Tau/total Tau ratio Z-score": "0.0551 ± 0.6"}
{"compound": "Cc1nc2sccn2c(=O)c1CCN1CCC(=C(c2ccc(F)cc2)c2ccc(F)cc2)CC1", "pThr231Tau/total Tau ratio Z-score": "-0.613 ± 1"}
{"compound": "C[C@H](CCC(=O)O)[C@H]1CC[C@H]2[C@@H]3C(=O)C[C@@H]4CC(=O)CC[C@]4(C)[C@H]3CC(=O)[C@]12C", "note": "[Prestw-123]", "pThr231Tau/total Tau ratio Z-score": "1.03 ± 0.14"}
{"compound": "CCOC(=O)C1=C(C)NC(C)=C(C(=O)OC)C1c1cccc(Cl)c1Cl", "note": "(stereo not given) [Prestw-478]", "pThr231Tau/total Tau ratio Z-score": "0.199 ± 2"}
{"compound": "O=C1c2c(O)ccc(O)c2C(=O)c2c(NCCNCCO)ccc(NCCNCCO)c21", "note": "[Prestw-385]", "pThr231Tau/total Tau ratio Z-score": "-4.16 ± 1.9"}
{"compound": "O=C(NC(Cc1cc(=O)[nH]c2ccccc12)C(=O)O)c1ccc(Cl)cc1", "note": "(stereo not given) [Prestw-1166]", "pThr231Tau/total Tau ratio Z-score": "0.00334 ± 0.71"}
{"compound": "Nc1ncn(C2OC(CO)C(O)C2O)c(=O)n1", "note": "(stereo not given) [Prestw-866]", "pThr231Tau/total Tau ratio Z-score": "0.373 ± 0.39"}
{"compound": "C[N+](C)(C)CCOC(N)=O", "note": "[Prestw-880]", "pThr231Tau/total Tau ratio Z-score": "0.121 ± 0.94"}
{"compound": "CC(C)(C)NC[C@H](O)COc1cccc2c1CCCC2=O", "note": "[Prestw-847]", "pThr231Tau/total Tau ratio Z-score": "0.757 ± 0.052"}
{"compound": "O=C(O)CCC(=O)c1ccc(-c2ccccc2)cc1", "note": "[Prestw-218]", "pThr231Tau/total Tau ratio Z-score": "-0.416 ± 0.58"}
{"compound": "N[C@@H](Cc1ccc(O)c(O)c1)C(=O)O", "note": "[Prestw-17]", "pThr231Tau/total Tau ratio Z-score": "0.813 ± 0.062"}
{"compound": "CN1CCN2c3ccccc3Cc3ccccc3C2C1", "note": "(stereo not given) [Prestw-99]", "pThr231Tau/total Tau ratio Z-score": "-0.685 ± 0.62"}
{"compound": "O=C1c2cccc(O)c2C(=O)c2c(O)cccc21", "note": "[DANTRON    Cathartic ex Rheum palmatum, Xyris semifuscata]", "pThr231Tau/total Tau ratio Z-score": "-0.0604 ± 0.0028"}
{"compound": "CCOC(N)=O", "note": "[URETHANE    Therap cat: antineoplastic, cytotoxic]", "pThr231Tau/total Tau ratio Z-score": "0.83 ± 1.6"}
{"compound": "CC(C)NNC(=O)c1ccncc1", "note": "[Prestw-176]", "pThr231Tau/total Tau ratio Z-score": "0.426 ± 1.2"}
{"compound": "CC(=O)N=c1sc(S(N)(=O)=O)nn1C", "note": "[Prestw-802]", "pThr231Tau/total Tau ratio Z-score": "-0.412 ± 1"}
{"compound": "Cc1cc2nc3c(=O)[nH]c(=O)nc-3n(C[C@H](O)[C@H](O)[C@H](O)COP(=O)(O)O)c2cc1C", "note": "[RIBOFLAVIN 5-PHOSPHATE SODIUM, vitamin, enzyme cofactor]", "pThr231Tau/total Tau ratio Z-score": "0.705 ± 1.1"}
{"compound": "COc1ccc(C[C@@H](C)NC[C@H](O)c2ccc(O)c(NC=O)c2)cc1", "note": "[Prestw-1421]", "pThr231Tau/total Tau ratio Z-score": "-1.08 ± 0.87"}
{"compound": "CCN(CC)CCNC(=O)c1cc(Br)c(N)cc1OC", "note": "[Prestw-704]", "pThr231Tau/total Tau ratio Z-score": "-0.163 ± 1.9"}
{"compound": "OC(CCN1CCCCC1)(c1ccccc1)c1ccccc1", "note": "[Prestw-799]", "pThr231Tau/total Tau ratio Z-score": "-0.824 ± 0.73"}
{"compound": "Cn1c(=O)c2c(ncn2CC2OCCO2)n(C)c1=O", "note": "[Prestw-1136]", "pThr231Tau/total Tau ratio Z-score": "-0.814 ± 0.53"}
{"compound": "CN1CCN(CC(=O)N2c3ccccc3C(=O)Nc3cccnc32)CC1", "note": "[Prestw-129]", "pThr231Tau/total Tau ratio Z-score": "-0.978 ± 0.6"}
{"compound": "CC(=O)N(CC(O)CO)c1c(I)c(C(=O)NCC(O)CO)c(I)c(C(=O)NCC(O)CO)c1I", "note": "(stereo not given) [Prestw-512]", "pThr231Tau/total Tau ratio Z-score": "-0.0769 ± 0.65"}
{"compound": "CN(CCCCCCCCCCN(C)C(=O)Oc1cccc([N+](C)(C)C)c1)C(=O)Oc1cccc([N+](C)(C)C)c1", "note": "[Prestw-616]", "pThr231Tau/total Tau ratio Z-score": "-0.781 ± 0.45"}
{"compound": "Cn1cc[nH]c1=S", "note": "[Prestw-786]", "pThr231Tau/total Tau ratio Z-score": "-0.507 ± 1.2"}
{"compound": "C[C@H]1O[C@H](O[C@H]2[C@H](O)[C@@H](O)[C@@H](O[C@@H]([C@H](O)[C@@H](O)C=O)[C@H](O)CO)O[C@@H]2CO)[C@H](O)[C@@H](O)[C@@H]1N[C@H]1C=C(CO)[C@@H](O)[C@H](O)[C@H]1O", "note": "[Prestw-1174]", "pThr231Tau/total Tau ratio Z-score": "1.2 ± 1.7"}
{"compound": "CC1=NS(=O)(=O)c2cc(Cl)ccc2N1", "note": "[Prestw-87]", "pThr231Tau/total Tau ratio Z-score": "2.85 ± 0.41"}
{"compound": "c1ccc(-c2ccc(C(c3ccccc3)n3ccnc3)cc2)cc1", "note": "(stereo not given) [Prestw-1241]", "pThr231Tau/total Tau ratio Z-score": "-1.56 ± 0.26"}
{"compound": "Oc1c(Cl)cc(Cl)c2cccnc12", "note": "[Prestw-1474]", "pThr231Tau/total Tau ratio Z-score": "-1.69 ± 0.85"}
{"compound": "CN(C)CCC(c1ccc(Br)cc1)c1ccccn1", "note": "(stereo not given) [Prestw-475]", "pThr231Tau/total Tau ratio Z-score": "0.453 ± 0.35"}
{"compound": "CC(=O)OC[C@H]1O[C@@H]([S-])[C@H](OC(C)=O)[C@@H](OC(C)=O)[C@@H]1OC(C)=O.CCP(CC)CC.[Au+]", "note": "[Prestw-1233]", "pThr231Tau/total Tau ratio Z-score": "-2.33 ± 0.47"}
{"compound": "CCC1(c2ccccc2)C(=O)NCNC1=O", "note": "[Prestw-933]", "pThr231Tau/total Tau ratio Z-score": "1.37 ± 0.57"}
{"compound": "N#Cc1ccc2c(c1)N(CCCN1CCC(O)CC1)c1ccccc1S2", "note": "[PERICIAZINE    Therap cat: antipsychotic]", "pThr231Tau/total Tau ratio Z-score": "0.5 ± 1.3"}
{"compound": "Nc1ncnc2c1ncn2[C@@H]1O[C@H](CO)[C@@H](O)[C@@H]1O", "note": "[Prestw-768]", "pThr231Tau/total Tau ratio Z-score": "-0.43 ± 1.1"}
{"compound": "C[C@H]1C[C@H]2[C@@H]3CCC4=CC(=O)C=C[C@]4(C)[C@@]3(F)[C@@H](O)C[C@]2(C)[C@@]1(O)C(=O)COP(=O)(O)O", "pThr231Tau/total Tau ratio Z-score": "1.02 ± 0.74"}
{"compound": "C[C@@](Cc1ccc(O)c(O)c1)(NN)C(=O)O", "note": "[Prestw-1177]", "pThr231Tau/total Tau ratio Z-score": "-0.0182 ± 1.1"}
{"compound": "CN(C)CCOC(c1ccccc1)c1ccccc1.Cn1c(=O)c2[nH]c(Cl)nc2n(C)c1=O", "note": "[Prestw-265]", "pThr231Tau/total Tau ratio Z-score": "0.184 ± 1.8"}
{"compound": "O=C1NCC2(CCN(CCc3ccccc3)CC2)O1", "note": "[Prestw-213]", "pThr231Tau/total Tau ratio Z-score": "-0.872 ± 1"}
{"compound": "Clc1ccc2c(c1)CCc1cccnc1C2=C1CCNCC1", "note": "[Prestw-1390]", "pThr231Tau/total Tau ratio Z-score": "0.0479 ± 0.65"}
{"compound": "Cc1cc2nc3c(=O)[nH]c(=O)nc-3n(C[C@H](O)[C@H](O)[C@H](O)CO)c2cc1C", "pThr231Tau/total Tau ratio Z-score": "-0.125 ± 0.25"}
{"compound": "O=C(c1ccc(F)cc1)C1CCN(CCn2c(=O)[nH]c3ccccc3c2=O)CC1", "note": "[Prestw-392]", "pThr231Tau/total Tau ratio Z-score": "1.24 ± 1"}
{"compound": "CCN(CC)C(=O)c1ccc(O)c(OC)c1", "note": "[Prestw-500]", "pThr231Tau/total Tau ratio Z-score": "0.0641 ± 0.031"}
{"compound": "CCCCCCCCCCOc1cc2c(=O)c(C(=O)OCC)c[nH]c2cc1OCC", "note": "[DECOQUINATE, coccidiostat]", "pThr231Tau/total Tau ratio Z-score": "-0.00316 ± 0.46"}
{"compound": "CNCCc1ccccn1", "note": "[Prestw-543]", "pThr231Tau/total Tau ratio Z-score": "0.522 ± 0.66"}
{"compound": "CC=CC(=O)N(CC)c1ccccc1C", "note": "[Prestw-951]", "pThr231Tau/total Tau ratio Z-score": "0.244 ± 0.065"}
{"compound": "CCCCCCCCCCCCCCCC(=O)OC[C@H](O)[C@H]1OC(=O)C(O)=C1O", "note": "[ASCORBYL PALMITATE, antioxidant]", "pThr231Tau/total Tau ratio Z-score": "-0.611 ± 1.2"}
{"compound": "Nc1nc2c(ncn2COC(CO)CO)c(=O)[nH]1", "note": "[Prestw-839]", "pThr231Tau/total Tau ratio Z-score": "-0.435 ± 1.7"}
{"compound": "Clc1cccc(Cl)c1NC1=NCCN1", "note": "[Prestw-248]", "pThr231Tau/total Tau ratio Z-score": "0.192 ± 0.32"}
{"compound": "CO[C@H]1/C=C/O[C@@]2(C)Oc3c(C)c(O)c4c(O)c(c5c(nc6cc(C)ccn65)c4c3C2=O)NC(=O)/C(C)=C\\C=C\\[C@H](C)[C@H](O)[C@@H](C)[C@@H](O)[C@@H](C)[C@H](OC(C)=O)[C@@H]1C", "note": "[Prestw-1478]", "pThr231Tau/total Tau ratio Z-score": "-0.567 ± 0.51"}
{"compound": "CC(=O)O[C@]1(C(C)=O)CC[C@H]2[C@@H]3C=C(Cl)C4=CC(=O)CC[C@]4(C)[C@H]3CC[C@@]21C", "note": "[Prestw-1374]", "pThr231Tau/total Tau ratio Z-score": "-0.356 ± 0.79"}
